Measurements: PubChem BioAssay AID504444 (National Center for Advancing Translational Sciences (NCATS), 2011)
Where “and” joins values, the source holds several entries; their conditions need not be identical. Equal values may be shown once. Screen size: about 360,000 compounds; about 7,500 (2.1%) were called active. The inconclusive results got no clear call from the source; some entries with a clear call stand among them for comparison. Calls come from the whole dose curve; as a rule, active = well fitted inhibition curve with a large enough effect; inconclusive = small, poorly fitted or top-dose-only effect, or effect the other way; inactive = flat fitted curve, though single readings scatter. Potencies beside an inconclusive call are fits to weak or partial responses and may not hold up.

Assay: Nrf2 qHTS screen for inhibitors; note: nearly all actives have a fitted effect of over 60% in size
Details: A549 ARE-Fluc reporter, luciferase luminescence, 18-24 h; activity change, negative = inhibition: at 46 µM (top of the series)
Method in brief: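 In this cell-based qHTS, ARE-driven firefly luciferase in A549 cells reports Nrf2 activity; the luminescent signal after BugLite lysis is the measured value, with a prior CellTiter-Fluor read for cell health.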
% is set by controls: 0 for no effect and ±100 for the full control effect; potency is the fitted concentration of half-maximal effect.

Row | Compound | Potency | activity change, negative = inhibition
1 | CCC(C(=O)NCCC(C)C)N(C(=O)Cn1nnc(-c2ccc(C)cc2)n1)c1cccc(O)c1 (stereo unspecified) | inconclusive: 29.1 µM [falling, single point] | 
2 | CCC[C@H]1COCCS(=O)(=O)N1Cc1ccccc1 | inconclusive: 0.0366 µM [falling, full curve, poor fit] | 
3 | CCN1CCN(Cc2ccc(NC(=O)c3ccc(C)c(NC(=O)c4ccc5n[nH]nc5c4)c3)cc2C(F)(F)F)CC1 |  | inactive: -13.5%
4 | CCc1cc2c(=O)n(-c3ccc(Br)cc3)cnc2s1 | inconclusive: 3.26 µM [activator, partial curve, poor fit] | 
5 | Cc1cc(C(=O)c2ccccc2)nc2ccccc12 | inconclusive: 4.11 µM [activator, full curve, poor fit] | 
6 | CCN(CC)CCNC(=O)c1cc2c(-c3cccc(OC)c3)nn(C)c2s1 | inconclusive: 14.6 µM [activator, partial curve, poor fit] | 
7 | Cc1cccc(C)c1NC(=O)CCCSc1nnc(-c2ccc(Cl)cc2)n1-c1ccccc1 | inconclusive: 29.1 µM [falling, single point] | 
8 | CCOC(=O)NC(=O)C(/C=N/c1sccc1C(=O)OC)=C(\C)O | inconclusive: 14.6 µM [activator, partial curve, poor fit] | 
9 | COc1ccccc1CCNC(=O)C(=O)NCC1OCCN1S(=O)(=O)c1ccc(OC)c(OC)c1 (stereo unspecified) | inconclusive: 7.31 µM [falling, partial curve] | 
10 | COc1cc(NC(=O)CN(C)CCOc2ccccc2)c(C)cc1[N+](=O)[O-] | inconclusive: 14.6 µM [falling, partial curve, poor fit] | 
11 | O=C(NNC(=S)Nc1cccc(Cl)c1)c1ccccc1OC(F)F | active: 20.6 µM | 
12 | COc1ccc(-c2sc3ccc(OC)cc3c2C#Cc2cncn2C)cc1 | inconclusive: 2.31 µM [activator, partial curve, poor fit] | 
13 | CC(O)(CS(=O)(=O)Cc1ccccc1)C(=O)Nc1ccc(C(F)(F)F)cc1 (stereo unspecified) | inconclusive: 29.1 µM [falling, single point] | 
14 | CC1=CC(C)(C)NC(=S)N1c1ccc([N+](=O)[O-])cc1 | inconclusive: 20.6 µM [falling, single point] | 
15 | COc1cc(/C=C/C(=O)O)ccc1OCc1ccc([N+](=O)[O-])cc1 | inconclusive: 20.6 µM [activator, single point] | 
16 | O=C(CCSc1ccccc1)N1CCN(c2ccccc2F)CC1 | inconclusive: 16.4 µM [activator, partial curve] | 
17 | Cc1ccc2[nH]cc(C(c3ccccc3)c3ccc(Cl)s3)c2c1 (stereo unspecified) | inconclusive: 20.6 µM [falling, partial curve] | 
18 | COc1ccc(/C=N/NC(=O)c2ccc(NS(=O)(=O)c3cccs3)cc2)cc1 | inconclusive: 6.51 µM [activator, partial curve, poor fit] | 
19 | Cc1nn(C(C)C(=O)NCc2ccco2)c(=O)c2nn(-c3ccccc3)c(C)c12 (stereo unspecified) | inconclusive: 2.31 µM [falling, partial curve, poor fit] | 
20 | COc1ccc(C(=O)CCc2ccccc2O)c(OC)c1 | inconclusive: 20.6 µM [activator, single point] | 
21 | Cn1c(O)c(/C=N/NC(=O)c2cc3ccccc3cc2O)c2ccccc21 | inconclusive: 32.6 µM [falling, single point] | 

Random excerpt: two entries already listed, in no set order.
Row | Compound | Potency | activity change, negative = inhibition
16 | O=C(CCSc1ccccc1)N1CCN(c2ccccc2F)CC1 | inconclusive: 16.4 µM [activator, partial curve] | 
5 | Cc1cc(C(=O)c2ccccc2)nc2ccccc12 | inconclusive: 4.11 µM [activator, full curve, poor fit] | 

The list continues:

Row | Compound | Potency | activity change, negative = inhibition
22 | COc1ccc(-c2cc(C3CCN(c4cc(Cl)nc(N)n4)CC3)[nH]n2)cc1 | active: 13 µM | 
23 | COc1ccccc1C(=O)Nc1ccc(-c2cc(C(F)(F)F)nn2-c2ccccc2)cc1 | inconclusive: 16.4 µM [falling, partial curve, poor fit] | 
24 | Cc1cnc(NC(=O)CSc2ncc(-c3ccccc3)n2Cc2ccco2)s1 | inconclusive: 29.1 µM [falling, single point] | 
25 | CCN1CCc2c(OCC(=O)N3N=C(c4cccs4)CC3c3ccc(F)cc3)cccc2C1=O (stereo unspecified) | active: 23.1 µM | 
26 | Cc1noc(C)c1COc1ncnc2ccccc12 | inconclusive: 0.0058 µM [falling, full curve, poor fit] | 
27 | O=C(COC(=O)c1cc(S(=O)(=O)N2CCOCC2)ccc1O)NCC1CCCO1 (stereo unspecified) |  | inactive: 6.12%
28 | COc1ccc(C(C)=O)cc1COC(=O)c1c(C)nn(-c2ccccc2)c1C | inconclusive: 29.1 µM [falling, single point] | 
29 | COc1ccc(C2Nc3ccccc3C(=O)N2Cc2ccco2)cc1COc1ccc(NC(C)=O)cc1 (stereo unspecified) | inactive and inconclusive: 9.2 µM [activator, partial curve] | 
30 | O=C(Nc1ccc(F)c(F)c1)C(c1ccccc1)N1Cc2ccccc2C1=O (stereo unspecified) |  | inactive: -6.97%
31 | CCC(C)[C@H]1CNC(=S)N1CCc1cccc2ccccc12 (stereo partly specified) | inconclusive: 29.1 µM [falling, single point] | 
32 | CCc1c(C(=O)Nc2cc(C)cc(C)c2)[nH]c(C)c1C(C)=O | inconclusive: 20.6 µM [falling, single point] | 
33 | COc1c2c(cc3c1C(CC(O)Cc1ccccc1)N(C)CC3)OCO2 (stereo unspecified) | inconclusive: 14.6 µM [falling, partial curve, poor fit] | 
34 | COc1ccc(NC(=O)c2ccc(Cc3ccc(C)cc3)o2)cc1 | inconclusive: 32.6 µM [falling, single point] | 
35 | Cc1ccc(Nc2cc(C)nc(NCc3ccccc3)n2)cc1 |  | inactive: 3.53%
36 | FC(F)(F)c1nc(N2CCN(c3ccccc3)CC2)nc2c1CCCCC2 |  | inactive: 1.7%
37 | CC1CCN(S(=O)(=O)c2cc(C(=O)N3CCN(c4ncccn4)CC3)ccc2Br)CC1 | active: 23.1 µM | 
38 | Cc1nn(-c2ccccc2)c2sc(C(=O)c3c(N)n(C)c(=O)n(C)c3=O)cc12 | inconclusive: 6.51 µM [falling, full curve, poor fit] | 
39 | CC(C)(C)C(=O)NC(=S)Nc1ccc(S(=O)(=O)Nc2nccs2)cc1 |  | inactive: -9.56%
40 | CSc1ccc(CCNC(=O)CN2C(=O)COc3ccc(S(=O)(=O)N4CCCCCC4)cc32)cc1 | inconclusive: 16.4 µM [falling, single point] | 
41 | Cn1cnnc1SC1c2cccc3cccc(c23)C1NS(=O)(=O)c1ccccc1 (stereo unspecified) |  | inactive: 6.82%
